These are yes or no findings as the source states them, for the method shown. In cells and extracts the contact can be indirect. Binding calls can cover weak binding; strength is not graded here.

The assay has as its target T1, CYLD (UniProt Q66H62).
T1 sequence: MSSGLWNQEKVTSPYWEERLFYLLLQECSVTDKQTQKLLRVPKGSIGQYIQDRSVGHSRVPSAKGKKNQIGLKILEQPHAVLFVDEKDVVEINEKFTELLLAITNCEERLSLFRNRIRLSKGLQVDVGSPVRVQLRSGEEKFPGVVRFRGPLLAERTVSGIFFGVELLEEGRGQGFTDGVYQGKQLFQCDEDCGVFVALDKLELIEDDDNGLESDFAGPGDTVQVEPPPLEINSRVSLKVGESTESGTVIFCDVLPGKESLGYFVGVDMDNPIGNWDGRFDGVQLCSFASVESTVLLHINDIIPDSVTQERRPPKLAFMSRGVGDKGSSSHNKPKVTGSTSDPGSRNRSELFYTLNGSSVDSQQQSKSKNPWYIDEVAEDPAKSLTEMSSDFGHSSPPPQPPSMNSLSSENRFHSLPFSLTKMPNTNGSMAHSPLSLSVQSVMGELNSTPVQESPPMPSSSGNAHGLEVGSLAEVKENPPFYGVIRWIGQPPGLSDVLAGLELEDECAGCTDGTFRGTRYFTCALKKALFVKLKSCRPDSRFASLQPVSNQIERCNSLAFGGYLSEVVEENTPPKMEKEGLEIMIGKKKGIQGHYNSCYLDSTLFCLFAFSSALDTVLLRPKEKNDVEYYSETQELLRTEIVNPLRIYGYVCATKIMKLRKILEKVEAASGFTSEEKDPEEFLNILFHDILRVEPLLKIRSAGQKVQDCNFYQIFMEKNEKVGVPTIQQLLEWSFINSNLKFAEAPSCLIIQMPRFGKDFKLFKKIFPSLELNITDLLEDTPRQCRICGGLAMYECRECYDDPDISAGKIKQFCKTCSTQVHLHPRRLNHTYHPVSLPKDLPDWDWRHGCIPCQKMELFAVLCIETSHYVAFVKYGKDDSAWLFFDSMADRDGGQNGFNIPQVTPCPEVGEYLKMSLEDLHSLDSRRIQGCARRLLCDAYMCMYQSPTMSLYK
As to the kind of experiment: co-IP; CYLD immunoprecipitated with CYLD antibody from solubilized PSD fractions; Western blot with antibodies for CYLD or CaMKII; control: beads without CYLD antibody. For orientation: In western blotting, separated proteins are transferred to a membrane and probed.

In the case of CaMKII (enzyme), the binding result is “binds”.
